From publication PMC8564290
No constants are given. Whether binding was seen depends on the method and setting. Binding seen in cells or lysates may run through a third protein. Some binding calls cover weakened binding; strength is not graded here.

Protein sequences, listed by entry. Tags and fused reporters are not part of them.
UniProt Q8BWG9: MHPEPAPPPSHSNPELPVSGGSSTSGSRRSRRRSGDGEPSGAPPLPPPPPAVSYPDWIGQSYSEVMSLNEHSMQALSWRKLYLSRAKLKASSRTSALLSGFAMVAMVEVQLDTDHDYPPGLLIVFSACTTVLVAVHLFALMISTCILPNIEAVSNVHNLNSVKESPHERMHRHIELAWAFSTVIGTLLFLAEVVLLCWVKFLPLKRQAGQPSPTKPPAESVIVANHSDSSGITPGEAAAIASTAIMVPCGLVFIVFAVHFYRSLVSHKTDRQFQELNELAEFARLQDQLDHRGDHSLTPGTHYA
UniProt Q08460: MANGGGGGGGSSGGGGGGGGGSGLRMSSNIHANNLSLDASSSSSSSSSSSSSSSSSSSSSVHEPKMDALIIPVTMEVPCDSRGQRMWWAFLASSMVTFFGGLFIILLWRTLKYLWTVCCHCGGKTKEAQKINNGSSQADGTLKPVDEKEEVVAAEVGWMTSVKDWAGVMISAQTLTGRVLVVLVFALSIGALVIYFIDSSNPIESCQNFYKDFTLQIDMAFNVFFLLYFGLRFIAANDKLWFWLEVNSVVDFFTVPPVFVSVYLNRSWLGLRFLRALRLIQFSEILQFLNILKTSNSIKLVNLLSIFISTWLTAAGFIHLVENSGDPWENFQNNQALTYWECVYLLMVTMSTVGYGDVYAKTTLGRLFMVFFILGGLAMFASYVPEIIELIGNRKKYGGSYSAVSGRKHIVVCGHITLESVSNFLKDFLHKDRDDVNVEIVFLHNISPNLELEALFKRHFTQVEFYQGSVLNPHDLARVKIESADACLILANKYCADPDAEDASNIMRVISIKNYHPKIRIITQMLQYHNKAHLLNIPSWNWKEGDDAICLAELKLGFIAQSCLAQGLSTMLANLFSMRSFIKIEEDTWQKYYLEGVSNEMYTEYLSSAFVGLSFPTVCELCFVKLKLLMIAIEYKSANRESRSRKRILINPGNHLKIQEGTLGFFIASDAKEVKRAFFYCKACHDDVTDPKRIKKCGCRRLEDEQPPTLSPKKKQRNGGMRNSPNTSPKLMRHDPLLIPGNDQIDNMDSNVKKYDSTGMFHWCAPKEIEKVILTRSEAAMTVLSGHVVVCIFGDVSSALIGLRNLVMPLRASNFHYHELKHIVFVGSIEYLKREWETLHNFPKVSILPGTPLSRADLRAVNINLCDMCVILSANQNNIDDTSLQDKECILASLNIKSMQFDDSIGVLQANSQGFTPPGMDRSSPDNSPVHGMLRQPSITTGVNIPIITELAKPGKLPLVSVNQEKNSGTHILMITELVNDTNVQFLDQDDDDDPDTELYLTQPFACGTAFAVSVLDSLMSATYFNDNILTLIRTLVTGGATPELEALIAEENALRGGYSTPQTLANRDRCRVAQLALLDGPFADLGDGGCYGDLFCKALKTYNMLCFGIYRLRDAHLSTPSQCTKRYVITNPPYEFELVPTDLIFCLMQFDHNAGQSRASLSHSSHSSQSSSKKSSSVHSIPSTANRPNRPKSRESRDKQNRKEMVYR

Target: Orai1 (mouse (endogenous in small intestinal smooth muscle)) (UniProt Q8BWG9)
Assay: co-IP; proteins from small intestinal smooth muscle of age-matched control or diabetic (STZ) mice, extracted with 1% Nonidet P-40, 150 mmol/L NaCl, 20 mmol/L Tris-HCl pH 8.0 plus protease inhibitors; immunoprecipitated with anti-Orai1, immunoblotted with anti-BKCa channel or anti-Orai1; less BKCa pulled down in diabetic mice

Substance: large conductance Ca2+-activated K+ (BKCa) channel (from UniProt Q08460 1-1209)
- binding: binds
